{
  "source": "patent US20220411750A1",
  "about": "“CELL STRUCTURE, PRODUCTION METHOD THEREOF, AND METHOD FOR EVALUATING HEPATOTOXICITY OF SUBSTANCE TO BE TESTED” (TOPPAN INC., priority 2019, published 2022)",
  "origin": "cited, not measured here",
  "details": "Yes/No; Yes for No. 1-14, No for No. 15-18; cited from earlier work",
  "data": [
    {"smiles": "CCCCc1oc2ccccc2c1C(=O)c1cc(I)c(OCCN(CC)CC)c(I)c1", "note": "[Amiodarone]", "values": [
      {"measurement": "Toxicity", "value": "Yes"}
    ]}
  ]
}
